Experimental data taken from ChEMBL document CHEMBL1141379, “Selective inhibitory activity against MAO and molecular modeling studies of 2-thiazolylhydrazone derivatives” (J Med Chem, 2007).

Target: T1, Amine oxidase [flavin-containing] A (Bos taurus, UniProt P21398)
T1 sequence (P21398 whole entry): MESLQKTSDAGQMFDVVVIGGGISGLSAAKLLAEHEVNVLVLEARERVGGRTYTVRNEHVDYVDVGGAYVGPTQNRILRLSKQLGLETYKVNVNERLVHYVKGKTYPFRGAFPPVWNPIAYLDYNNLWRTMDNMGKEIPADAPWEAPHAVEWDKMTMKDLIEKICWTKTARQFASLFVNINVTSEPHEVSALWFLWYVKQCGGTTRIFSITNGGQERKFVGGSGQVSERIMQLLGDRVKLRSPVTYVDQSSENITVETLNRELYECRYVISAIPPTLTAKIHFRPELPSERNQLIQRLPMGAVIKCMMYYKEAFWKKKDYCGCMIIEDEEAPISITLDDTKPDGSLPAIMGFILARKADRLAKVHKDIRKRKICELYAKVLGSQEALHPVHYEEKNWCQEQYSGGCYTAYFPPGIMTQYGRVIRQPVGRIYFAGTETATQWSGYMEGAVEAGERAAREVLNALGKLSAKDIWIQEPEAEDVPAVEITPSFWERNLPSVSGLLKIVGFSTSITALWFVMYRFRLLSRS
Assay: Inhibition of bovine brain mitochondria MAOA

SMILES: CC1CCCC/C1=N\Nc1nc(-c2ccccc2)cs1 (stereo unspecified)
- Ki: 40.7 nM
